Measured values as given in patent US20170198044A1, “COMPOSITIONS AND METHODS FOR SAFE AND EFFECTIVE IMMUNOTHERAPY” (TheraMAB LLC, priority 2014, published 2017).
At least one structure is not confirmed: it was looked up by name or label, or the drawing left a doubt.

Legend:
[1] = system: regulatory T cells; assay: Regulatory T cells and Ki67+ Tregs in RESTORE system, PBMC samples from RA patients (Table 16); type: cell-based, human; details: TAB08 + MP
Procedure: (§1) PBMC were cultured in supplemented RPMI 1640 containing 10% AB-positive heat-inactivated human serum (Sigma) for two days at high cell density (HD; 1×10^7/ml) to allow tissue-like interactions. Cells were then harvested and cultured under standard conditions (1×10^6/ml) in 96 or 48-well flat-bottom tissue culture plates in a final volume of 0.2 or 0.6 ml in a humidified incubator at 37° C. with 5% CO2. Intracellular Ki67 staining was used to measure cell proliferation. For intracellular staining of Foxp3, Ki67 and CD4, cells were first surface stained, permeabilized with Fix/Perm (eBioscience), and stained with the appropriate antibodies diluted in Perm/Wash (eBioscience). FACS analysis was performed using a FACSCalibur flow cytometer (BD Biosciences). Data were analyzed using FlowJo software (TreeStar).

[2] = system: IL-1β, IL-2, IL-4, IL-6, IL-10, IL-17, TNFα, IFNγ; assay: Phase 1b RA patients: cytokines in blood plasma; type: in vivo, human; details: premedication on the fourth week, 10 mkg/kg cohort
[3] = system: Treg cells; assay: Treg-cell vs Tconv-cell expansion and proliferation in HD precultured PBMCs (flow cytometry, Ki67, CFSE); type: cell-based, human; details: 0.01 mM MP, TAB08 0.1 μg/mL
Procedure: Treg-cell (CD25^hiFoxp3^+) and activated Tconv-cell (CD25^loFoxp3^−) frequencies among gated CD4^+ T cells were then assessed by flow cytometry using a live light-scatter entrance gate. […] Treg-cell frequencies among CD4^+ T cells and absolute numbers of Treg cells were determined by flow cytometry after 5 days of culture. […] Treg-cell versus Tconv-cell expansion in CD25-depleted and nondepleted PBMC cultures was then assessed by flow cytometry, using a live light-scatter entrance gate followed by gates for CD4^+Foxp3^− (left dot plots) and CD4^+Foxp3^+ (right dot plots). […] Proliferation was assessed by, in Panel D, the expression of Ki67 and Panel E CFSE dilution. *denotes insufficient number of cells for evaluation. […]
Cell proliferation was measured from day 2 to 3 as radioactivity incorporated from [H^3] thymidine (1 μCi per well, Hartmann Analytic GmbH) into DNA, using a liquid scintillation counter (PerkinElmer). Results are expressed as counts per minute (cpm). […]
For phenotypic analysis, cells were stained with the appropriate antibodies for 20 min at 4° C., washed once with FACS buffer (PBS, 0.1% BSA, 0.2% NaN3), and fixed with 2% paraformaldehyde. […] Data were analyzed using FlowJo Version 9.4.11 software (TreeStar). Results are shown as log 10 fluorescence intensities. […]

[4] = system: PBMC samples taken from RA patients; assay: In vitro RESTORE system: cytokine production by PBMC samples from RA patients; type: cell-based, human
Text: The purpose of the RESTORE method application was definition of safety parameters of the use of TAB08 antibody and the possibility of participation of RA patients in clinical trials, in particular:
To determine the levels of response of peripheral blood mononuclear cells of RA patients to various concentrations of TAB08, i.e. trace the dose-dependence of cytokine release by mononuclear cells exposed to TAB08 in vitro.
To determine the ability of methylprednisolone, which has an anti-inflammatory effect, to suppress TAB08-induced cytokine release.
as §1

[5] = system: human peripheral blood mononuclear cell (PBMCs); assay: T-cell proliferation in HD precultured PBMCs (3H thymidine); type: cell-based; details: TAB08 1 μg/mL, titrated MP
[6] = system: PBMCs from RA patients; assay: Cytokine release in HD precultured PBMCs from RA patients (Example 1); type: cell-based, human; details: MP inclusion (0.01 mM)
[7] = system: human peripheral blood mononuclear cell (PBMCs); assay: Cytokine release by HD precultured PBMCs of healthy donors (RESTORE protocol, CBA); type: cell-based

## C[C@H]1C[C@@H]2[C@H]([C@@H](O)C[C@@]3(C)[C@H]2CC[C@]3(O)C(=O)CO)[C@@]2(C)C=CC(=O)C=C12 [MP, methylprednisolone]
[1]
  effect of MP on regulatory T cell proliferation: regulatory T cells maintain their to proliferate in most of the samples in the presence of MP
[2]
  effect of premedication on TAB08-induced cytokine release: effectively prevented release of all cytokines measured with an exception of IL-10 in one patient
[3]
  suppression of division of CD4+ Tconv cells (CFSE): almost fully suppressed
[4]; RA patients PBMC
  ability to inhibit cytokine release in the presence of high doses of TAB08: demonstrated for both responding patients
[4]; TAB08 + MP
  effect of MP on cytokines production: effectively suppresses
[5]
  suppression of TAB08-induced proliferation: effectively suppressed
[6]
  TNFa in supernatants of RA PBMC cultures stimulated with 1 μg of TAB08: reduced to background
[7]; 0.01 mM MP
  TAB08-induced TNFa and IFN-γ release: fully suppressed
[7]; TAB08 1 μg/mL, titrated MP
  suppression of TAB08-induced cytokine release: effectively suppressed
